{"source": "PubChem BioAssay AID1259254 (NCATS, 2017)", "assay": "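Gene knock-downs that lead to re-replication, shown by excess G2 DNA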 (primary screen)", "cell system": "human HCT116 colorectal cancer cells", "knock-down reagent": "single siRNA against human genes", "time to read-out": "3 days", "detection": "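Imaged Hoechst DNA stain sorts each cell into a cycle phase by DNA amount; per plate, G2 fraction set to 0% for non-targeting and 100% for GMNN siRNA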", "scale": "G2 robust z-score: higher = more G2 cells, more excess DNA replication", "rule for the call": "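Active siRNAs have a G2 robust z of 5 or more median absolute deviations over the median, which in these data means about 38% or higher of GMNN control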", "note": "In all, the deposit lists about 59,000 reagents; shown is an unselected part. Over the whole deposit, about 1,550 (2.6%) got an active call. 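G2 share is only a proxy for re-replication; each gene was hit by three separate siRNAs, and active genes were retested.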 The numbers tell different reagents against one gene apart. Further read-outs or replicates are left out here. Not stated in the record: the amount of reagent."}
{"gene symbol": "LPIN1", "reagent no.": 1, "G2 robust z-score": -0.475, "Call": "inactive"}
{"gene symbol": "LPIN1", "reagent no.": 2, "G2 robust z-score": -0.406, "Call": "inactive"}
{"gene symbol": "LPIN1", "reagent no.": 3, "G2 robust z-score": -0.952, "Call": "inactive"}
{"gene symbol": "SLC20A1", "reagent no.": 1, "G2 robust z-score": 4.7, "Call": "inactive"}
{"gene symbol": "SLC20A1", "reagent no.": 2, "G2 robust z-score": -0.00253, "Call": "inactive"}
{"gene symbol": "SLC20A1", "reagent no.": 3, "G2 robust z-score": -0.934, "Call": "inactive"}
{"gene symbol": "HAPLN4", "reagent no.": 1, "G2 robust z-score": -0.341, "Call": "inactive"}
{"gene symbol": "HAPLN4", "reagent no.": 2, "G2 robust z-score": -0.226, "Call": "inactive"}
{"gene symbol": "HAPLN4", "reagent no.": 3, "G2 robust z-score": 1.34, "Call": "inactive"}
{"gene symbol": "UGGT2", "reagent no.": 1, "G2 robust z-score": 1.86, "Call": "inactive"}
{"gene symbol": "UGGT2", "reagent no.": 2, "G2 robust z-score": 0.171, "Call": "inactive"}
{"gene symbol": "UGGT2", "reagent no.": 3, "G2 robust z-score": -0.544, "Call": "inactive"}
{"gene symbol": "ASIC1", "reagent no.": 1, "G2 robust z-score": -0.578, "Call": "inactive"}
{"gene symbol": "ASIC1", "reagent no.": 2, "G2 robust z-score": -1.38, "Call": "inactive"}
{"gene symbol": "ASIC1", "reagent no.": 3, "G2 robust z-score": 0.197, "Call": "inactive"}

2 entries from above, reformatted.
SLC20A1 #3: G2 robust z-score = -0.934; Call = inactive
HAPLN4 #1: G2 robust z-score = -0.341; Call = inactive

Additional entries follow:
{"gene symbol": "CZIB", "reagent no.": 1, "G2 robust z-score": -0.829, "Call": "inactive"}
{"gene symbol": "CZIB", "reagent no.": 2, "G2 robust z-score": 8.53, "Call": "active"}
{"gene symbol": "CZIB", "reagent no.": 3, "G2 robust z-score": -0.585, "Call": "inactive"}
{"gene symbol": "CRIPTO", "reagent no.": 1, "G2 robust z-score": -0.585, "Call": "inactive"}
{"gene symbol": "CRIPTO", "reagent no.": 2, "G2 robust z-score": -0.172, "Call": "inactive"}
{"gene symbol": "CRIPTO", "reagent no.": 3, "G2 robust z-score": -0.439, "Call": "inactive"}
{"gene symbol": "GYS2", "reagent no.": 1, "G2 robust z-score": -0.735, "Call": "inactive"}
{"gene symbol": "GYS2", "reagent no.": 2, "G2 robust z-score": 2.58, "Call": "inactive"}
{"gene symbol": "GYS2", "reagent no.": 3, "G2 robust z-score": -0.537, "Call": "inactive"}
{"gene symbol": "CSK", "reagent no.": 1, "G2 robust z-score": -1.05, "Call": "inactive"}
{"gene symbol": "CSK", "reagent no.": 2, "G2 robust z-score": -0.471, "Call": "inactive"}
{"gene symbol": "CSK", "reagent no.": 3, "G2 robust z-score": -0.171, "Call": "inactive"}
{"gene symbol": "KHNYN", "reagent no.": 1, "G2 robust z-score": 5.21, "Call": "active"}
{"gene symbol": "KHNYN", "reagent no.": 2, "G2 robust z-score": -0.74, "Call": "inactive"}
{"gene symbol": "KHNYN", "reagent no.": 3, "G2 robust z-score": -0.996, "Call": "inactive"}
